Data as given in PubChem BioAssay AID1508588 (Peter MacCallum Cancer Centre, 2020)
This is one part, drawn at random, of about 18,000 reagents. 790 of all reagents (4.4%) were called active. 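Calls rest on a combination of fold-change classes in drug and vehicle arms, not all shown here.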 The numbers tell different reagents against one gene apart. No sequences are given here.

Assay: 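Genome-wide search for knock-downs that heighten vemurafenib action in melanoma cells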 (primary screen)
System: human WM266.4 melanoma cells (BRAF V600 mutant)
Reagent: siRNA pool against human genes, 40 nM
Time to read-out: 96 h from transfection to read-out
Treatment: vemurafenib 300 nM (about IC25), added 48 h after transfection, for 48 h; comparison arm got DMSO vehicle only
Measured: 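Cell gain (DAPI nuclei at end minus before drug, mean of two replicates) and medium lactate by absorbance per cell, both as ratio to non-targeting siRNA, also grouped into fold-change classes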
Reading the numbers: cell gain with vemurafenib: higher = more cell gain than with non-targeting siRNA; lactate per cell with vemurafenib: higher = more lactate made per cell
Active means: 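Enhancement is called by pairing each knock-down's vehicle-arm and drug-arm fold-change classes for viability or glycolysis; which class combinations qualify is not given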
Calls: active = enhances vemurafenib effect; inactive = no enhancement seen

cell gain with vemurafenib | lactate per cell with vemurafenib | Call | gene | pool no.
0.43 | 0.28 | inactive | RRP36 | 1
0.29 | 1.45 | inactive | PLEKHG5 | 1
0.37 | 1.17 | inactive | PTRH2 | 1
1.02 | 0.6 | inactive | CAPN9 | 1
1.16 | 0.7 | inactive | CCDC73 | 1
1.64 | 0.67 | inactive | PSMG3 | 1
0.83 | 0.8 | inactive | BANK1 | 1
1.04 | 0.74 | inactive | ZSWIM2 | 1
0.7 | 0.55 | inactive | RSAD1 | 1
0.5 | 0.55 | inactive | HACL1 | 1
0.44 | 1.23 | inactive | AGT | 1
0.75 | 1.06 | inactive | TAF1A | 1
0.72 | 0.59 | inactive | SDHA | 1
0.86 | 1.15 | inactive | RNF144A | 1
0.38 | 2.22 | inactive | RHOXF2 | 1
0.71 | 1.03 | inactive | PDX1 | 1
0.66 | 1.06 | inactive | SNX29 | 1
0.85 | 1.18 | inactive | SNX29 | 2
0.35 | 0.97 | inactive | KAT8 | 1
0.86 | 0.79 | inactive | ARHGDIA | 1
1.23 | 0.81 | inactive | B3GALNT2 | 1
0.13 | 1.12 | inactive | TRMT9B | 1
0.3 | 0.66 | active | NSD1 | 1
0.96 | 0.74 | inactive | RAMP2 | 1
0.08 | 2.28 | inactive | LGALS2 | 1
0.77 | 0.88 | inactive | MRRF | 1
0.24 | 1.75 | inactive | OTUD3 | 1
0.89 | 1.38 | inactive | TMC3 | 1
0.88 | 0.55 | inactive | ACAA2 | 1
0.82 | 0.86 | inactive | H2AC1 | 1
1.08 | 0.4 | inactive | TMPRSS11B | 1
0.75 | 1.1 | inactive | THSD7B | 1
0.63 | 0.62 | inactive | PRRC2A | 1
1.19 | 0.75 | inactive | CRAMP1 | 1

Sorted by “cell gain with vemurafenib” (lowest first): 4 of the entries above.
cell gain with vemurafenib | lactate per cell with vemurafenib | Call | gene | pool no.
0.63 | 0.62 | inactive | PRRC2A | 1
0.75 | 1.1 | inactive | THSD7B | 1
0.82 | 0.86 | inactive | H2AC1 | 1
1.08 | 0.4 | inactive | TMPRSS11B | 1
